Data as given in the supplement of paper PMC10849652.
The other results are listed elsewhere or left out.

Chains of the proteins cited; added tags and fusions are not shown. Lines headed by an entry give the natural chain unless they say otherwise; changes in a name come on top.
UniProt Q9H6R7: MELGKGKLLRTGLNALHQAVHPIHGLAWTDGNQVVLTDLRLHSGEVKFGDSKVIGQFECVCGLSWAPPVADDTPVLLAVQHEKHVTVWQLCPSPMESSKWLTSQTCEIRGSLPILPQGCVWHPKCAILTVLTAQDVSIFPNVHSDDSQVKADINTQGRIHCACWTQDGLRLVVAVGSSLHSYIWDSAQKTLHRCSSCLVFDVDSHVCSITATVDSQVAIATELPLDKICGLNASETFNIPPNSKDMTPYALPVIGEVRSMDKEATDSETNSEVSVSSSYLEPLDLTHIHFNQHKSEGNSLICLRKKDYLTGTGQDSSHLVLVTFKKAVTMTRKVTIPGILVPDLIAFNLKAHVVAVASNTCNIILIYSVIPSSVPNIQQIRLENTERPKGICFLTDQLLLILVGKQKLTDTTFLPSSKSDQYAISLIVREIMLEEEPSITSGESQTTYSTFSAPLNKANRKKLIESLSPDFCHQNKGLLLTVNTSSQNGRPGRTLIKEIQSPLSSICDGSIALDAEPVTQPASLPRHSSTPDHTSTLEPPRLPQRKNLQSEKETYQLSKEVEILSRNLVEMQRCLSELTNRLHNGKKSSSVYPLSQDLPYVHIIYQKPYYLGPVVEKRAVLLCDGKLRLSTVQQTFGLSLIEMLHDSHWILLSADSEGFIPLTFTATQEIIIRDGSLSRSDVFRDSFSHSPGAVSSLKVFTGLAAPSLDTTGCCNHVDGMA
UniProt Q9H267: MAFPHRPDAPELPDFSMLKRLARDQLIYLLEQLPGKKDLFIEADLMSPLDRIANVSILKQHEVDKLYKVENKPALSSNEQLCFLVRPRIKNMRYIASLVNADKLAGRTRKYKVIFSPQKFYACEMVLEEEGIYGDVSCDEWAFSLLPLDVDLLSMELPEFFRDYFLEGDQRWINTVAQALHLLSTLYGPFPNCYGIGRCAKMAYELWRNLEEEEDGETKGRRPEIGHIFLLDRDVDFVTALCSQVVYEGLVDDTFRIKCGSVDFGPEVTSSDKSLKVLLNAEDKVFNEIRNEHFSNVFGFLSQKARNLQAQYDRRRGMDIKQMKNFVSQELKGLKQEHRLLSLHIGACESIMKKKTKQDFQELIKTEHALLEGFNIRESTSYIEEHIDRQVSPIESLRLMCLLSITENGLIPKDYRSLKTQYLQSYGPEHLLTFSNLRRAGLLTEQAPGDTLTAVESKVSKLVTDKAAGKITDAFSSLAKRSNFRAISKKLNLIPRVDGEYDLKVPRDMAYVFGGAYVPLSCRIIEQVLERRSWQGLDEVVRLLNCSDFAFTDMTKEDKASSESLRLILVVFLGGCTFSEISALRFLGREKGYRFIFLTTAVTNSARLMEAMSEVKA
UniProt A4D1P6: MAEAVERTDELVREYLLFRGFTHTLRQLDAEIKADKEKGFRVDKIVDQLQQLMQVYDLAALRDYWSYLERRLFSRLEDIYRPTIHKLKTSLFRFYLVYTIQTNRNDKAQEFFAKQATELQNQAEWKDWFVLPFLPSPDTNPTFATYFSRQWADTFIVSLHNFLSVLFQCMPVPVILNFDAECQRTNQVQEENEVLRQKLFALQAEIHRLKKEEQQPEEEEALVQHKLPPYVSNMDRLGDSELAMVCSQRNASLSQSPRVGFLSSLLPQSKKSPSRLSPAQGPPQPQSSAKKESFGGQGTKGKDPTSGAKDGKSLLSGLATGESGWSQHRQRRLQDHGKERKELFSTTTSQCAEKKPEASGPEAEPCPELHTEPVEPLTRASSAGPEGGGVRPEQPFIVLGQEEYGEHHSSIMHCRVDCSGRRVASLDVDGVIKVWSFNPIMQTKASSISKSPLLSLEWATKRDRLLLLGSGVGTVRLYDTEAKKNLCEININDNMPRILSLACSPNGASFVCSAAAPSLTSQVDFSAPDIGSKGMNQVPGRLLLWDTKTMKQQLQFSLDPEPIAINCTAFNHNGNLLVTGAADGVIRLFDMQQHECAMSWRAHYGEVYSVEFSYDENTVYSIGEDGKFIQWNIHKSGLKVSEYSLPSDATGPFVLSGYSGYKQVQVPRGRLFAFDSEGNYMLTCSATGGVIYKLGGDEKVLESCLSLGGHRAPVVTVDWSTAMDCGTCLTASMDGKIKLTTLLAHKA
UniProt Q86VN1: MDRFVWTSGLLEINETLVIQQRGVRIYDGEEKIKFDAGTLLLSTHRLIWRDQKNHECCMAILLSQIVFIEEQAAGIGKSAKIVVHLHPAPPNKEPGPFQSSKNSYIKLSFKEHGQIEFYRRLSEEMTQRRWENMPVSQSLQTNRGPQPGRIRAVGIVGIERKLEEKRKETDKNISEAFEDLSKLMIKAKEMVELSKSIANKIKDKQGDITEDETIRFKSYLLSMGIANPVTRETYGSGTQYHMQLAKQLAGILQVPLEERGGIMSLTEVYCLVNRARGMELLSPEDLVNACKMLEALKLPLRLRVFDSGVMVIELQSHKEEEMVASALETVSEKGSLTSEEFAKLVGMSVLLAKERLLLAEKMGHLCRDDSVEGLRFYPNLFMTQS
UniProt Q8NI36: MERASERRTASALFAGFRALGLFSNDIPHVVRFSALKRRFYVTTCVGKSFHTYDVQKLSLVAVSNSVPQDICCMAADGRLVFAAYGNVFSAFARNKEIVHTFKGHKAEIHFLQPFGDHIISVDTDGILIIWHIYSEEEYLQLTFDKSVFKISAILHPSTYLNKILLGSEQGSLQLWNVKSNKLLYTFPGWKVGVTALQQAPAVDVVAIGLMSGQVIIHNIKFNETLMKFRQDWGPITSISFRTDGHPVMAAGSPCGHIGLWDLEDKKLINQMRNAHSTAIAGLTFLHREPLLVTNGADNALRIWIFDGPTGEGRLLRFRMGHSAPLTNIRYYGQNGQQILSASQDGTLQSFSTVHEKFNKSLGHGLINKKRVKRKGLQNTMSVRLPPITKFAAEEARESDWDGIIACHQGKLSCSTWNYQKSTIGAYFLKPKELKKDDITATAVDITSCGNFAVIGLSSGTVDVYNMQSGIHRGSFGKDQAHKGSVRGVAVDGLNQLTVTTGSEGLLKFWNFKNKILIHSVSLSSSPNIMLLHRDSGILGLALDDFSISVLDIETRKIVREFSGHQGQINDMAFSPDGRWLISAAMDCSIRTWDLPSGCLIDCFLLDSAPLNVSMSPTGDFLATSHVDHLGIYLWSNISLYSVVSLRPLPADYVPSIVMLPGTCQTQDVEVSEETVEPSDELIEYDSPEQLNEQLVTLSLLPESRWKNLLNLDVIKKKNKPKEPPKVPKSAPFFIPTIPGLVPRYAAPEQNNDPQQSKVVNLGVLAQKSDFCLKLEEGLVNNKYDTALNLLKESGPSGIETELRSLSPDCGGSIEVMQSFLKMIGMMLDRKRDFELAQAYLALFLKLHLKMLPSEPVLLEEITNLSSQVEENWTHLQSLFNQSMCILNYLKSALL
UniProt Q9H269: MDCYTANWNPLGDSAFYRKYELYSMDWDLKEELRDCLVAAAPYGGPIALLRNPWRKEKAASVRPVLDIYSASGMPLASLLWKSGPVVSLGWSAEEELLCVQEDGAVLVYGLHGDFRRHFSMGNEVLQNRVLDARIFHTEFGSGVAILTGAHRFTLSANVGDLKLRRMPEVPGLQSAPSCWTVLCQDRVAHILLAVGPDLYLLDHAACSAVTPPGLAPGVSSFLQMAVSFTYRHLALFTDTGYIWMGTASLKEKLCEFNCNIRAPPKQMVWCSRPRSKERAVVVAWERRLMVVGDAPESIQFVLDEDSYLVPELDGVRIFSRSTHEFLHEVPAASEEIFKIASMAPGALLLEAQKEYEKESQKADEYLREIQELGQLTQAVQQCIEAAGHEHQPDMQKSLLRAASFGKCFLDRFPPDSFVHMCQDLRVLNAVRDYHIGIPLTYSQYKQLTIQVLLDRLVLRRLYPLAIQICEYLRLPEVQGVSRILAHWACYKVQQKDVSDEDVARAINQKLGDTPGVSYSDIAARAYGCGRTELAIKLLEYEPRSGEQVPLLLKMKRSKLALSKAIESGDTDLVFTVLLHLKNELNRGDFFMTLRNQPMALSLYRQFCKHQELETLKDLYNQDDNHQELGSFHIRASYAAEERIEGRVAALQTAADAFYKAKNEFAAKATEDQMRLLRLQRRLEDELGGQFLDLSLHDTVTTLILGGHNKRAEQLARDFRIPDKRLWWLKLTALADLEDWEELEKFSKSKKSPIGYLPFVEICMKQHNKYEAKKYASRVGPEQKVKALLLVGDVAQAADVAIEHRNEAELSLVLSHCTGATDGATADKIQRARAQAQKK
UniProt Q4G0F5, whole entry, looked up: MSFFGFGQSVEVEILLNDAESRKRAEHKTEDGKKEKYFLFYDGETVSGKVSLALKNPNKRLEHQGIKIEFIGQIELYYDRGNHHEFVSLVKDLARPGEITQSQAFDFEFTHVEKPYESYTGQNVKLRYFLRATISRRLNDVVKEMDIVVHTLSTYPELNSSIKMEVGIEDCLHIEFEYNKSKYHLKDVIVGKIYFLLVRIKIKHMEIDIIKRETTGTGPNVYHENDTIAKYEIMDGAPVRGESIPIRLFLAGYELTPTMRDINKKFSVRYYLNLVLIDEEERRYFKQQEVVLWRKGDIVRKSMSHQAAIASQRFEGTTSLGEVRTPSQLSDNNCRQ
UniProt Q8N1B4: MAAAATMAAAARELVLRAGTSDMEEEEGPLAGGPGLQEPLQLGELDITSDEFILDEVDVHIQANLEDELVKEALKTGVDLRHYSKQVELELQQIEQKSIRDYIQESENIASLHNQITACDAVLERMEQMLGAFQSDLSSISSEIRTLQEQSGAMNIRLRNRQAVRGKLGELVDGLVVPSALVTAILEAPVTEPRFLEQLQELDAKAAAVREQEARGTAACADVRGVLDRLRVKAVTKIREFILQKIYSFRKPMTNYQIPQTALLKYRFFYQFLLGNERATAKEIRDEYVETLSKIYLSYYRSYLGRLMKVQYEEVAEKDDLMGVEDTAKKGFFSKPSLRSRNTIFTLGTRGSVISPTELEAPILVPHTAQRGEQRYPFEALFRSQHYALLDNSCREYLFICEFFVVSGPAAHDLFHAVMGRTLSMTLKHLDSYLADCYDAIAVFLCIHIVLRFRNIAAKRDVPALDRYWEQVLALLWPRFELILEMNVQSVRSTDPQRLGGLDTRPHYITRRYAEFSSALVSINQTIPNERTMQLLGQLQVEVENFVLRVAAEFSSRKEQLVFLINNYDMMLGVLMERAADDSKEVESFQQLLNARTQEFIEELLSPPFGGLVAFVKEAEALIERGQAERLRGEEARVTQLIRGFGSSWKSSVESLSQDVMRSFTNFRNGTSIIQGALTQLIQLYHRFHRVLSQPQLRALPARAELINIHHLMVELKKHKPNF
UniProt Q9HCS7: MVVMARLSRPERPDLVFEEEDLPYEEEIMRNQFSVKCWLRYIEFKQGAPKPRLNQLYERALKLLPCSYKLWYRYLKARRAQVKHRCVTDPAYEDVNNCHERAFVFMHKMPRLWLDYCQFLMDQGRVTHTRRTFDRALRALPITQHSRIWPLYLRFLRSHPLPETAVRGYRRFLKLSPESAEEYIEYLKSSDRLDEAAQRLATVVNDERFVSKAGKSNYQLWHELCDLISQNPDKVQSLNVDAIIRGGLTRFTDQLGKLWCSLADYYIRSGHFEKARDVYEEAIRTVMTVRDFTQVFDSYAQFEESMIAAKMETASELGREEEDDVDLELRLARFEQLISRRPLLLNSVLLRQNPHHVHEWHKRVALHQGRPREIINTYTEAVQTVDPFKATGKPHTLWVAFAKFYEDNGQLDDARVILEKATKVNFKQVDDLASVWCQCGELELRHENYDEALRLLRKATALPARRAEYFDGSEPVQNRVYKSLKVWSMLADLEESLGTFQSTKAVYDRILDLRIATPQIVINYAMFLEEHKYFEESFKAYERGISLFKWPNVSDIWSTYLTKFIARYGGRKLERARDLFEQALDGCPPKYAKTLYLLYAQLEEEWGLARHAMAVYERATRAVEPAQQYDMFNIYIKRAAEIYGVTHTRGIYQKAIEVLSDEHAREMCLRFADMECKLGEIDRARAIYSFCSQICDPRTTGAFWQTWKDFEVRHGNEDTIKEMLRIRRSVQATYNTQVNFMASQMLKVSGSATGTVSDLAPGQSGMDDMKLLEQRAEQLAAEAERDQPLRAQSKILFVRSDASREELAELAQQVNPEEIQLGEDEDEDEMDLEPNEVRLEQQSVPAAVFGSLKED
UniProt Q99986: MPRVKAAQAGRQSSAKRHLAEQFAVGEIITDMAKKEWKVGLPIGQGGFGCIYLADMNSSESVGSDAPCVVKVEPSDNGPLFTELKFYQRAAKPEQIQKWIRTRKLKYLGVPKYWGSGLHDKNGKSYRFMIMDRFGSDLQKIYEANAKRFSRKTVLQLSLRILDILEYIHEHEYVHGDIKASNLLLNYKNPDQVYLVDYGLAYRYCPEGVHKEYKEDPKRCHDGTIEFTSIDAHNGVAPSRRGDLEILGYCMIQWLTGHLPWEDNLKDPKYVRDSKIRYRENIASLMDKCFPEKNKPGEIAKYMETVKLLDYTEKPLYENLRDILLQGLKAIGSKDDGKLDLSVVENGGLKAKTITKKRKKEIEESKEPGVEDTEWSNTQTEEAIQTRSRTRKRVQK

Tests used:
Assay in all cases: log2 fold change, soluble protein after heating vs DMSO (PISA); higher = thermal stabilisation; K562 lysate, 10 uM; active = over 0.2 and 3.5 SD of the protein, either way, in both replicates (recomputed)
[1] = compound: C=CC(=O)N1CCC[C@@H](n2nc(-c3ccc(Oc4ccccc4)cc3)c3c(N)ncnc32)C1 [ibrutinib]
Method in brief: (§1)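 K562 pellets were dounce-homogenised in PBS pH 7.4 containing 1 mM MgCl2, and the crude extract, at 1 mg/mL protein, was exposed to 10 μM compound for 30 min. Aliquots were heated for 3 min across 48°C-58°C, pooled, brought to 0.5% NP-40 at 4°C and spun at 21,000xg for 90 min, with the supernatant taken as soluble protein. TMTpro 16plex LC-MS/MS with equalised channel sums quantified that protein. Values are log-two fold changes in thermal stability relative to solvent controls, taken from duplicates.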

[2] = compound: CC(=O)c1cnc2ccc(-c3cc(Cl)c(O)c(Cl)c3)nc2c1N[C@H]1CC[C@H](CN(C)C)CC1
Method in brief: as §1

[3] = compound: CC(C)(C)Cn1c(N)nc2ccc(-c3[nH]c(C(C)(C)C)nc3-c3ccc(F)cc3)nc21 [ralimetinib]
Method in brief: as §1

[4] = compound: CC(C)(O)CC(=O)NCCn1ccc2ncnc(Nc3ccc(Oc4cccc(C(F)(F)F)c4)c(Cl)c3)c21
Method in brief: as §1

[5] = compound: CC(C)C1=C2N=C(C=C(N2N=C1)NCC3=CC=CC=C3)NCCCCCCN
Method in brief: as §1

[6] = compound: CC1=C(C(CC(=O)N1)C2=CC=C(C=C2)C(F)(F)F)C(=O)NC3=C(C=C4C(=C3)C=NN4)F
Method in brief: as §1

[7] = compound: CC1=C(C2=C(C=C1)C(=O)C3=CC=CC=C3N2CCCN)C
Method in brief: as §1

[8] = compound: CC1=C(C=C(C=C1)NC(=O)C2=CC(=CC=C2)C(C)(C)C#N)NC3=CC4=C(C=C3)N=CN(C4=O)C
Method in brief: as §1

[9] = compound: CC1=C(C=C(C=C1)NC(=O)C2=CC(=CC=C2)N(C)C)NC(=O)C3=CC=C(C=C3)O
Method in brief: as §1

[10] = compound: CC1=CC=C(C=C1)SC2=C3C=C(SC3=CN=C2)C(=O)N
Method in brief: as §1

[11] = compound: CCCS(=O)(=O)Nc1ccc(F)c(C(=O)c2c[nH]c3ncc(-c4ccc(Cl)cc4)cc23)c1F [vemurafenib]
Method in brief: as §1

[12] = compound: CCCS(=O)(=O)Nc1ccc(F)c(C(=O)c2c[nH]c3ncc(Cl)cc23)c1F
Method in brief: as §1

[13] = compound: CCN(CCCOc1ccc2c(Nc3cc(CC(=O)Nc4cccc(F)c4)[nH]n3)ncnc2c1)CCOP(=O)(O)O [barasertib]
Method in brief: as §1

[14] = compound: CC[C@@H]1C(=O)N(C)c2cnc(Nc3ccc(C(=O)NC4CCN(C)CC4)cc3OC)nc2N1C1CCCC1
Method in brief: as §1

[15] = compound: CC[C@@H]1C(=O)N(C)c2cnc(Nc3ccc(C(=O)N[C@H]4CC[C@H](N5CCN(CC6CC6)CC5)CC4)cc3OC)nc2N1C(C)C [volasertib]
Method in brief: as §1

[16] = compound: CCn1c(C(=O)N(C2CC2)C2CC2)cc2c3c(ncn3C)c(Nc3cc(C)n(C)n3)nc21
Method in brief: as §1

[17] = compound: CCn1cc(-c2ccnc3[nH]c(-c4cccc(CN(C)C)c4)cc23)c(-c2ccc(NC(=O)N(C)C)cc2)n1
Method in brief: as §1

[18] = compound: CN1CCC(CNc2ccc3ncc(-c4cccc(OC(F)(F)F)c4)n3n2)CC1
Method in brief: as §1

[19] = compound: CN1CCN(CCOc2cc(OC3CCOCC3)c3c(Nc4c(Cl)ccc5c4OCO5)ncnc3c2)CC1 [saracatinib]
Method in brief: as §1

[20] = compound: CN1CCN(c2nc(C3=C(c4c[nH]c5ccccc45)C(=O)NC3=O)c3ccccc3n2)CC1 [sotrastaurin]
Method in brief: as §1

Measured: log2 fold change

WDCP (UniProt Q9H6R7)
inactive: [1] 0.021 | [2] 0.021 | [3] -0.006 | [4] -0.045 | [5] -0.027 | [6] -0.023 | [7] -0.041 | [8] 0 | [9] 0.01 | [10] 0.049 | [11] -0.004 | [12] 0.033 | [13] 0.032 | [14] 0.031 | [15] -0.019 | [16] -0.04 | [17] 0.003 | [18] 0.01 | [19] -0.011 | [20] 0.039

VPS33B (UniProt Q9H267)
inactive: [1] -0.011 | [2] -0.012 | [3] -0.002 | [4] -0.012 | [5] -0.034 | [6] 0.033 | [7] 0.034 | [8] -0.006 | [9] 0.012 | [10] 0.009 | [11] 0.01 | [12] 0.012 | [13] 0.003 | [14] -0.026 | [15] -0.034 | [16] 0.011 | [17] -0.048 | [18] 0.003 | [19] 0.017 | [20] 0.006

WDR45B (UniProt Q5MNZ6)
inactive: [1] 0.109 | [2] 0.007 | [3] 0.027 | [4] -0.027 | [5] -0.019 | [6] 0.032 | [7] -0.038 | [8] 0.014 | [9] 0.02 | [10] -0.033 | [11] 0 | [12] 0.005 | [13] -0.01 | [14] 0.054 | [15] 0.027 | [16] 0.034 | [17] -0.021 | [18] 0.024 | [19] 0.029 | [20] -0.017

WDR91 (UniProt A4D1P6)
inactive: [1] 0.05 | [2] 0.011 | [3] 0.026 | [4] -0.002 | [5] -0.026 | [6] -0.013 | [7] -0.009 | [8] -0.046 | [9] 0.043 | [10] 0.002 | [11] -0.096 | [12] 0.028 | [13] 0.046 | [14] -0.043 | [15] -0.023 | [16] 0.055 | [17] -0.01 | [18] 0.041 | [19] 0.067 | [20] 0.019

WBP4 (UniProt O75554)
inactive: [1] 0.013 | [2] -0.022 | [3] -0.023 | [4] 0.021 | [5] -0.02 | [6] 0.058 | [7] -0.023 | [8] 0.051 | [9] 0.007 | [10] -0.02 | [11] 0.017 | [12] 0.016 | [13] -0.066 | [14] 0.079 | [15] 0.003 | [16] -0.043 | [17] -0.004 | [18] 0.063 | [19] -0.01 | [20] 0.019

WWC2 isoform 6 (UniProt Q6AWC2)
inactive: [1] -0.079 | [2] 0.002 | [3] 0.068 | [4] 0.028 | [5] 0.026 | [6] -0.022 | [7] -0.024 | [8] -0.017 | [9] -0.029 | [10] -0.046 | [11] -0.024 | [12] -0.035 | [13] 0.002 | [14] -0.168 | [15] -0.065 | [16] 0.033 | [17] 0.049 | [18] -0.026 | [19] -0.014 | [20] 0.022

VPS36 (UniProt Q86VN1)
inactive: [1] -0.017 | [2] -0.007 | [3] -0.014 | [4] -0.037 | [5] -0.016 | [6] -0.018 | [7] -0.006 | [8] -0.003 | [9] 0.001 | [10] 0.004 | [11] 0.003 | [12] 0.006 | [13] 0.007 | [14] -0.014 | [15] -0.013 | [16] -0.005 | [17] -0.125 | [18] 0.013 | [19] -0.018 | [20] 0.047

WDR36 (UniProt Q8NI36)
inactive: [1] -0.02 | [2] -0.01 | [3] 0.019 | [4] -0.004 | [5] 0.03 | [6] 0.048 | [7] 0 | [8] 0.019 | [9] 0.013 | [10] 0.033 | [11] 0.014 | [12] 0.018 | [13] 0.011 | [14] -0.058 | [15] -0.022 | [16] 0.034 | [17] 0.012 | [18] -0.076 | [19] -0.015 | [20] 0.044

VPS16 (UniProt Q9H269)
inactive: [1] 0.009 | [2] 0.017 | [3] -0.012 | [4] -0.038 | [5] -0.014 | [6] -0.015 | [7] -0.029 | [8] 0.019 | [9] 0.031 | [10] 0 | [11] 0.038 | [12] 0.009 | [13] 0.007 | [14] 0.063 | [15] -0.04 | [16] 0.028 | [17] -0.049 | [18] -0.015 | [19] -0.017 | [20] -0.002

VPS26B (UniProt Q4G0F5)
inactive: [1] 0.028 | [2] -0.012 | [3] 0.026 | [4] -0.034 | [5] -0.026 | [6] -0.005 | [7] -0.03 | [8] -0.006 | [9] -0.035 | [10] -0.003 | [11] -0.001 | [12] 0.029 | [13] -0.005 | [14] -0.036 | [15] 0.011 | [16] -0.004 | [17] -0.131 | [18] 0.029 | [19] 0.014 | [20] 0.051

WDR20 isoform 7 (UniProt Q8TBZ3)
inactive: [1] 0.003 | [2] -0.001 | [3] 0.088 | [4] -0.023 | [5] -0.019 | [6] 0.087 | [7] 0.044 | [8] 0.058 | [9] -0.003 | [10] 0.014 | [11] 0.047 | [12] 0 | [13] 0.087 | [14] 0.054 | [15] -0.039 | [16] -0.017 | [17] 0.039 | [18] -0.039 | [19] 0.065 | [20] -0.036

Pulled one by one from above, two records:
WDR20 isoform 7 (UniProt Q8TBZ3)
inactive: [1] 0.003 | [2] -0.001 | [3] 0.088 | [4] -0.023 | [5] -0.019 | [6] 0.087 | [7] 0.044 | [8] 0.058 | [9] -0.003 | [10] 0.014 | [11] 0.047 | [12] 0 | [13] 0.087 | [14] 0.054 | [15] -0.039 | [16] -0.017 | [17] 0.039 | [18] -0.039 | [19] 0.065 | [20] -0.036

WDR91 (UniProt A4D1P6)
inactive: [1] 0.05 | [2] 0.011 | [3] 0.026 | [4] -0.002 | [5] -0.026 | [6] -0.013 | [7] -0.009 | [8] -0.046 | [9] 0.043 | [10] 0.002 | [11] -0.096 | [12] 0.028 | [13] 0.046 | [14] -0.043 | [15] -0.023 | [16] 0.055 | [17] -0.01 | [18] 0.041 | [19] 0.067 | [20] 0.019

Next part:

VPS52 (UniProt Q8N1B4)
inactive: [1] -0.066 | [2] -0.01 | [3] 0.038 | [4] -0.029 | [5] -0.003 | [6] 0.038 | [7] 0.034 | [8] -0.017 | [9] -0.002 | [10] -0.012 | [11] 0.004 | [12] 0.013 | [13] 0.021 | [14] -0.031 | [15] -0.043 | [16] 0.024 | [17] -0.034 | [18] -0.026 | [19] -0.016 | [20] 0.014

WNK1 isoform 7 (UniProt Q9H4A3)
inactive: [1] 0.078 | [2] -0.014 | [3] 0.031 | [4] -0.017 | [5] 0.012 | [6] 0.038 | [7] -0.008 | [8] -0.015 | [9] -0.01 | [10] -0.02 | [11] 0.001 | [12] 0.036 | [13] 0.021 | [14] 0.01 | [15] -0.019 | [16] 0.009 | [17] 0.04 | [18] -0.013 | [19] 0.031 | [20] -0.004

XAB2 (UniProt Q9HCS7)
inactive: [1] -0.089 | [2] -0.048 | [3] -0.002 | [4] -0.051 | [5] -0.011 | [6] 0.014 | [7] -0.032 | [8] 0.013 | [9] 0.03 | [10] -0.024 | [11] 0.033 | [12] 0.075 | [13] -0.015 | [14] 0.065 | [15] -0.02 | [16] 0.05 | [17] -0.044 | [18] 0.017 | [19] 0.006 | [20] 0

WASHC2A (UniProt Q641Q2)
inactive: [1] 0.001 | [2] -0.007 | [3] -0.009 | [4] -0.014 | [5] -0.02 | [6] -0.01 | [7] -0.037 | [8] 0.002 | [9] 0.013 | [10] -0.027 | [11] 0.007 | [12] 0.015 | [13] -0.022 | [14] 0.066 | [15] -0.001 | [16] -0.011 | [17] -0.013 | [18] -0.008 | [19] 0.039 | [20] -0.007

VRK1 (UniProt Q99986)
inactive: [1] 0.008 | [2] 0.035 | [3] 0.122 | [4] 0.005 | [5] -0.008 | [6] -0.013 | [7] 0.007 | [8] -0.015 | [9] 0.018 | [10] 0.003 | [11] 0.024 | [12] 0.024 | [13] -0.002 | [14] -0.051 | [15] -0.03 | [16] 0 | [17] -0.041 | [18] 0.031 | [19] 0.002 | [20] 0.178
